B1: il2ra_site1_2b5i_normal_mot_HHH_b1_02271_000000068_0001_1_16_H_._HHH_b1_07377_0001_0000200018_0000001_0_af2pred_dldesign_0_af2pred (protein)
chain: SSSSDLEAEKERVVAEARALAKTDLRAALEALDEIYKKLADAGLDELADEVYDLALELLKSSSSS
B2: il2ra_site2_2erj_sap_23_mot_136a1b26558f6d63e39c8b7f62c9aa34_0001_af2_000000152_0001_1_15_H_._HHH_b2_07934_af2_0001_0000500021_0000001_0_0001 (protein)
chain: SSSSSEDFERLFELHREVAELKEEGNPEEAEELIREAEELAKEWGSEAFLRSLELLREQLESSSS
B3: il2ra_site2_3nfp_normal_mot_HHH_b2_04451_000000238_0001_21_37_H_._HHH_b2_04195_af2_0001_0000100003_0000001_0 (protein)
chain: SSSSSEEERVRELLEQAEELLERGDPAEALRLLAEATEIAARLNNEELARLILELFEKVQKSSSS
B4: il2ra_site1_2b5i_normal_mot_ems_3hM_3687_af2_000000248_0001_45_64_H_._HHH_b2_05474_af2_0001_0000100001_0000001_0_af2pred_dldesign_0_af2pred (protein)
chain: SSSSSEAERLVAEATAEATRLKAEGKRLEALKVLEAAYKELAALDDDEAMARLEEKAKELLSSSS
B5: il2ra_site2_2erj_sap_22_mot_HHH_b2_01204_af2_000000056_0001_19_34_H_._HHH_b2_01084_af2_0001_0000300020_0000001_0_0001_af2pred_0001_af2pred (protein)
chain: SSSSSEELEELLERLREVDELARNGNPEEAQRLLEEALKELEEEGDRAAARLLRALAKLLSSSSS
B6: il2ra_site1_1z92_sap_30_mot_HHH_b1_02756_000000071_0001_20_37_H_._HHH_b1_08486_af2_0001_0000300012_0000001_0_0001_af2pred_0001_af2pred (protein)
chain: SSSSSLELIQAALEIVLELAEELGLSEEDAHRLAELAAKLAARGVSEEEIREILEEEAEQLSSSS
B7: il2ra_site2_3nfp_sap_20_mot_HHH_b1_04781_af2_000000057_0001_1_18_H_._HHH_b2_05984_0001_0000400021_0000001_0_0001 (protein)
chain: SSSSDDEVAEAAVEDARILAERNGNEELLEELERALEEARKEGDPKLFIELYEIIREILETSSSS
B8: il2ra_site1_1z92_sap_19_mot_HHH_b1_05862_af2_000000270_0001_22_38_H_._HHH_b1_03912_0001_0000200008_0000001_0_0001_af2pred_0001_af2pred (protein)
chain: SRLEEQVRRLLEIAGDPEQAVKLVERFAKRDLELGDPESAQEVLEVAVEILGDPRLEELLEEIRK
B9: il2ra_site2_2erj_normal_mot_HHH_b1_02520_af2_000000126_0001_18_35_H_._HHH_b1_04609_af2_0001_0000200003_0000001_0 (protein)
chain: SSSSDEEARELAKELEEAVERNDQHLVAELLVELWKAVEKYDDPELFEILVKIVRELDELSSSSS
B10: il2ra_site1_2b5i_normal_mot_f5ff40796168375b462bec8614a1db4a_0001_1_000000138_0001_53_65_H_._HHH_b1_01434_0001_0000200021_0000001_0_af2pred_dldesign_0_af2pred (protein)
chain: SSSSSDKRELLAELVAEAEALKKAGKKEEAYKLLRLARRLAKKAGDEETLAEIEELLKKLSSSSS
B11: il2ra_site2_3nfp_sap_18_mot_11b3ddc2b075f9cf8bd0803d3c309881_0001_1_000000111_0001_16_31_H_._HHH_b2_07906_0001_0000100006_0000001_0_0001 (protein)
chain: SSSSDEEVEELLEEAQRAAEEGDPEKARELVRRASQLAWELNDPELFFKVAELLYRIVQLKSSSS
B12: il2ra_site2_3nfp_normal_mot_HHH_b1_02676_000000052_0001_38_56_H_._HHH_b2_04155_0001_0000100010_0000001_0 (protein)
chain: SSSSDEEQLIEALVRSAKYLAKRVEDPEEREELERLAEELEREGDPRLLAELYELVARIYLSSSS
B13: il2ra_site2_3nfp_sap_21_mot_HHH_b1_04032_000000208_0001_43_56_H_._4e434c304959112f243d813f61b0e3cb_0001_af2_0001_0000400018_0000001_0_0001 (protein)
chain: DSSELLMEAARRDPRVYELILLLYELADNNDPEKVKEVEEELEELLKELGIPPEQVERILRLARQ
B14: il2ra_site2_3nfp_sap_18_mot_HHH_b1_06174_af2_000000017_0001_40_57_H_._3020bb65e3c0c4c1750efda2a61ed53f_0001_1_0001_0000300033_0000001_0_0001_af2pred_0001_af2pre … (protein)
chain: SSSSSDELEEEVERLLEEAKRIPDPEERFFVLADAFFLVAHSDNEELFELVRRVSQELQSSSSSS
B15: il2ra_site1_3nfp_normal_mot_HHH_b1_07180_af2_000000260_0001_1_19_H_._HHH_b1_05632_af2_0001_0000100009_0000001_0 (protein)
chain: SSSDLLEEVLRLAEEALRLAWEGDREEAEELVREAIKLAEEANDENSRRFLERLLRQIEQFSSSS
B16: il2ra_site1_1z92_sap_26_mot_8b466c8ab6a4ea9d290724e70e8647ea_0001_000000119_0001_54_65_H_._2874ac36c98298a0dc4d99a960bb3065_0001_af2_0001_0000400046_0000001_0_0 … (protein)
chain: SSSSSTEKQLEYLEEQARRKYERGDPEAAERFIKHAIKLAEESNDEEVRERLEKLEEELRSSSSS
B17: il2ra_site1_2b5i_normal_mot_HHH_b1_00095_000000044_0001_1_14_H_._HHH_b1_06770_af2_0001_0000400056_0000001_0_af2pred_dldesign_0_af2pred (protein)
chain: SSSSSDREAEAEKKIAEAKALKEAGKKKEALELLDELHKELAALGDEEREARVEELAAEISSSSS
B18: il2ra_site2_2erj_sap_25_mot_HHH_b1_06157_000000296_0001_22_38_H_._HHH_b1_06233_0001_0000500029_0000001_0_0001 (protein)
chain: SSSDWLHRLYELANELMRAVAEGDEELFEELLEEARELAERAQTDAVEEFLEALERQFKDHSSSS
B19: il2ra_site1_3nfp_sap_26_mot_HHH_b1_02234_af2_000000023_0001_1_14_H_._HHH_b1_00201_0001_0000200013_0000001_0_0001 (protein)
chain: NQEEIVRRLIEQFAENAGVPHVEVHVENGTFTVTVEGDDEAAEKVLETAREAAERFGIPIHVETE

The list shows a part of the results.

The experiment has as its target il2ra, P01589. In words: yeast display titration.
As to B1, the “apparent Kd” value was “inactive: no binding seen”.
Consider B2, for which the “apparent Kd” value is “inactive: no binding seen”.
With B3, the “apparent Kd” value was “inactive: no binding seen”.
Next, B4: “inactive: no binding seen”; B5: “inactive: no binding seen”; B6: “inactive: no binding seen”.
Regarding B7, the “apparent Kd” value was “inactive: no binding seen”.
Regarding B8, the “apparent Kd” value was “inactive: no binding seen”.
Regarding B9, the “apparent Kd” value was “inactive: no binding seen”.
Next, B10: “inactive: no binding seen”; B11: “inactive: no binding seen”.
Take B12: the “apparent Kd” value was “inactive: no binding seen”.
Regarding B13, the “apparent Kd” value was “inactive: no binding seen”.
Regarding B14, the “apparent Kd” value was “inactive: no binding seen”.
Next, B15: “inactive: no binding seen”; B16: “inactive: no binding seen”; B17: “inactive: no binding seen”.
In the case of B18, the “apparent Kd” value is “inactive: no binding seen”.
For the molecule B19, the “apparent Kd” value was “inactive: no binding seen”.

Source of the values: PMC10163288.
